PubChem BioAssay AID1508597 | Cure First, 2020

Purpose: 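Knock-downs altering ovarian cancer cell survival with or without PARP inhibitor rucaparib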 (primary screen)
System: human ovarian carcinoma lines grown from tumours: OCI-P5x (papillary serous) and OCI-C5x (clear cell)
Reagents: siRNA pool against human genes, 1.25 pmol siRNA per well
Timing: 72 h or 96 h, depending on the cell culture
Challenge: rucaparib 20 µM (about IC30) or vehicle, present until read-out
Rucaparib or vehicle: Vehicle
Cell line: OCI-C5x (clear cell)
Read-out: 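Luminescent ATP-based viability assay read 72 or 96 h after transfection, depending on culture, given as normalised percent viability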
Direction: viability, normalised: higher = more viable cells remaining
Active means: 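Active when normalised viability falls below 80 percent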
Meaning of the calls: active = viability under 80%; inactive = viability 80% or more
This is an unselected part of the about 2,100 reagents, under one of the conditions tested. 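Calls flag viability under 80% in either arm, not effects specific to rucaparib; the reference for percent is not stated.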 A number with no mark means an inactive call. A reagent listed more than once was tested more than once; the source does not tell the runs apart. Not given: the 100% reference.

MIS18BP1, technical replicate 1 showed viability, normalised (%) = 45.7 (active). With MIS18BP1, technical replicate 2, the values are viability, normalised (%) = 39.4 (active). With MIS18BP1, technical replicate 3 the deposit lists viability, normalised (%) = 43.2 (active). DDX60, technical replicate 1 gave viability, normalised (%) = 47.5 (active). With DDX60, technical replicate 2 the deposit lists viability, normalised (%) = 48.5 (active). For DDX60, technical replicate 3, the entry reads viability, normalised (%) = 52.5 (active).

For CHMP4C, technical replicate 1, the entry reads viability, normalised (%) = 41.1 (active). CHMP4C, technical replicate 2 gave viability, normalised (%) = 51.3 (active). With CHMP4C, technical replicate 3 the deposit lists viability, normalised (%) = 40 (active). With DHX8, technical replicate 1, the entry reads viability, normalised (%) = 15.4 (active). With DHX8, technical replicate 2, the entry reads viability, normalised (%) = 18.2 (active). With DHX8, technical replicate 3 the deposit lists viability, normalised (%) = 23.2 (active).

MAPK13, technical replicate 1 gave viability, normalised (%) = 75.4 (active). MAPK13, technical replicate 2 gave viability, normalised (%) = 60 (active). With MAPK13, technical replicate 3, the values are viability, normalised (%) = 43.3 (active). ITK, technical replicate 1 showed viability, normalised (%) = 67.4 (active). ITK, technical replicate 2 showed viability, normalised (%) = 54.8 (active). ITK, technical replicate 3 showed viability, normalised (%) = 51.4 (active).

For ERCC4, technical replicate 1, the values are viability, normalised (%) = 54.2 (active). ERCC4, technical replicate 2 gave viability, normalised (%) = 54.8 (active). ERCC4, technical replicate 3 gave viability, normalised (%) = 49.4 (active). AGO2, technical replicate 1 showed viability, normalised (%) = 55.1 (active). AGO2, technical replicate 2 showed viability, normalised (%) = 47.6 (active). For AGO2, technical replicate 3, the entry reads viability, normalised (%) = 37.7 (active).

NEK10, technical replicate 1 gave viability, normalised (%) = 62.2 (active). NEK10, technical replicate 2 showed viability, normalised (%) = 70.6 (active). NEK10, technical replicate 3 gave viability, normalised (%) = 65.9 (active). With POLQ, technical replicate 1, the entry reads viability, normalised (%) = 48.5 (active). POLQ, technical replicate 1 scored viability, normalised (%) = 59.9 (active). POLQ, technical replicate 2 gave viability, normalised (%) = 64.2 (active).

For POLQ, technical replicate 2 the deposit lists viability, normalised (%) = 40.1 (active). For POLQ, technical replicate 3, the values are viability, normalised (%) = 56.9 (active). For POLQ, technical replicate 3, the values are viability, normalised (%) = 37.8 (active). With FAN1, technical replicate 1, the entry reads viability, normalised (%) = 51 (active). FAN1, technical replicate 2 gave viability, normalised (%) = 64.7 (active). FAN1, technical replicate 3 showed viability, normalised (%) = 49.3 (active).

For CDK19, technical replicate 1, the values are viability, normalised (%) = 52.9 (active). For CDK19, technical replicate 2 the deposit lists viability, normalised (%) = 46.2 (active). CDK19, technical replicate 3 scored viability, normalised (%) = 48.2 (active). AKAP13, technical replicate 1 scored viability, normalised (%) = 74.6 (active). With AKAP13, technical replicate 2, the values are viability, normalised (%) = 63.4 (active). AKAP13, technical replicate 3 gave viability, normalised (%) = 44.6 (active).

Single entries from the entries so far:
Value for MIS18BP1, technical replicate 3 under “viability, normalised (%)”: 43.2 (active)
Value for DDX60, technical replicate 2 under “viability, normalised (%)”: 48.5 (active)
For “viability, normalised (%)”, AGO2, technical replicate 1 is entered as 55.1 (active)
FAN1, technical replicate 2, viability, normalised (%) → 64.7 (active)
NEK10, technical replicate 2, viability, normalised (%) = 70.6 (active)
